# End groups of sequences in plain letters are not given here.
# Assay: general procedure: Fmoc solid-phase peptide synthesis; CTC resin; HATU/DIPEA (linear); HBTU/DIEA (cyclic)
# Conditions: whole synthesis, scale 0.2 mmol
sequence,measurement,value
RDFQSFRKMWPFFAM,isolated mass,175 mg
same,isolated yield,3.1%

# — US10654896B2 (FUNDACIÓN PARA LA INVESTIGACIÓN MÉDICA APLICADA, priority 2016, dated 2020)
